Measurements published in patent US20220074941A1, “HSP90 COMBINATION THERAPY” (Sloan-Kettering Institute for Cancer Research, priority 2011, published 2022).

Legend:
[1] = system: Hsp90 complexes in K562 cell extract; assay: Nano-LC-MS/MS of PU-beads pull-downs; type: binding; details: protein identified in PU-beads pull-down of K562 extract, QSTAR-Elite QTof MS
Description: Protein cargo isolated from cell lysate with PU-beads or control-beads was subjected to proteomic analysis by nano liquid chromatography coupled to tandem mass spectrometry (nano LC-MS/MS). Initial protein identification was performed using the Mascot search engine, and was further evaluated using Scaffold Proteome Software (Tables 5a-d).
(§1) Lysates prepared as mentioned above were first pre-cleaned by incubation with control beads overnight at 4° C. […] Beads were washed with lysis buffer, proteins eluted by boiling in 2% SDS, separated on a denaturing gel and Coomassie stained according to manufacturer's procedure (Biorad). […] Analyses of the batch purified pools were done using a QSTAR-Elite hybrid quadrupole time-of-flight mass spectrometer (QTof MS) (AB/MDS Sciex), equipped with a nano spray ion source. Peptide mixtures (in 20 μL) are loaded onto a trapping guard column (0.3×5-mm PepMap C18 100 cartridge from LC Packings) using an Eksigent nano MDLC system (Eksigent Technologies, Inc) at a flow rate of 20 μL/min. […] Electrospray ionization (ESI) needle voltage was set at about 1800 V. The mass analyzer is operated in automatic, data-dependent MS/MS acquisition mode, with the threshold set to 10 counts per second of doubly or triply charged precursor ions selected for fragmentation scans. Survey scans of 0.25 sec are recorded from 400 to 1800 amu; up to 3 MS/MS scans are then collected sequentially for the selected precursor ions, recording from 100 to 1800 amu. The collision energy is automatically adjusted in accordance with the m/z value of the precursor ions selected for MS/MS. Selected precursor ions are excluded from repeated selection for 60 sec after the end of the corresponding fragmentation duty cycle. […] One missed tryptic cleavage site was allowed, precursor ion mass tolerance=0.4 Da fragment ion mass tolerance=0.4 Da, protein modifications were allowed for Met-oxide, Cys-acrylamide and N-terminal acetylation. MudPit scoring was typically applied with ‘require bold red’ activated, and using significance threshold score p<0.05. Unique peptide counts (or ‘spectral counts’) and percent sequence coverages for all identified proteins were exported to Scaffold Proteome Software (version 2_06_01, www.proteomesoftware.com) for further bioinformatic analysis (Table 5a). Using output from Mascot, Scaffold validates, organizes, and interprets mass spectrometry data, allowing more easily to manage large amounts of data, to compare samples, and to search for protein modifications.

[2] = system: Hsp90 complexes in Mia-PaCa-2 cell extract; assay: Nano-LC-MS/MS of PU-beads pull-downs; type: binding, human; details: protein identified in PU-beads pull-down of Mia-Paca 2 extract; QSTAR-Elite QTof MS
Description: as §1

Substance	Number of Assigned Spectra, K562 Prep 1 [1]	Number of Assigned Spectra, K562 Prep 2 [1]	Number of Assigned Spectra, Mia-Paca 2 [2]
RPTOR	7	3	2
CDK9	3	0	1
TP63	0	0	3
ATG2A	2	3	0
TFRC	25	7	0
SAR1A	3	1	1
PTPN23	8	8	2
YWHAE	13	1	13
RIF1	2	0	2
AKAP8	4	0	0
PIK3R4; VPS15	8	9	4
RNF213	12	49	16
ATR	5	0	3
DOCK7	2	0	0
HDAC6	4	6	2
ATM	2	4	1
TBK1	10	0	0
hVps34; PIK3C3	5	1	1
FBXO22	0	0	3
MAPK14; p38	1	0	0
YWHAQ	0	0	4
ARAF	2	0	1
PRKAG1	10	0	1
PPP2R5E	0	0	2
ILF2	8	11	18
RPS6KA3	13	10	3
IQGAP2	18	21	1

Substance	Number of Assigned Spectra, K562 Prep 1 [1]	Number of Assigned Spectra, K562 Prep 2 [1]	Number of Assigned Spectra, Mia-Paca 2 [2]
STAT3	15	4	6
BUB1B	3	1	0
NCOR1	11	13	1
TLN1	12	12	0
MAPK1; ERK2	23	5	14
NSUN2	11	8	5
DOCK11	0	0	1
PRMT6	2	0	0
WRAP53	3	0	0
KHDRBS1	8	15	2
RPS6KA1	6	1	0
PTK2B	2	0	0
NPM1	8	4	49
MAP3K4; MEKK4	3	7	0
STRAP	13	0	4
NCOR2	8	5	2
HSP90AA1	563	2018	1514
HIST1H1C	1	0	7
GRB2	5	1	2
SMG1	1	9	0
Sin1; MAPKAP1	2	0	0
NDC80	13	4	0
CDK12	0	0	3
FERMT3	8	0	0
TNKS1BP1	23	79	12
NONO	0	0	4
DOCK2	2	3	1
